The record followed here is paper PMC5909342 (Chemical Science, 2018).

Some peptides are written in HELM: one residue between dots, names in brackets for other building blocks, links after the first $.

This series is described as follows: general procedure: Fmoc solid-phase peptide synthesis; TCP resin (2-chlorotrityl chloride polystyrene, 1.3 mmol/g); DIC/HOBt. The following applies: whole synthesis, on resin loading, final cyclic peptide, scale of the general procedure 250 mg (0.14-0.25 mmol).
For “PEPTIDE1{R.G.D.F.V}$PEPTIDE1,PEPTIDE1,1:R1-5:R2$$$V2.0”, the isolated yield was 15%. For “PEPTIDE1{R.G.D.[Phe-t].V}$PEPTIDE1,PEPTIDE1,1:R1-5:R2$$$V2.0” the value was 14%; for “PEPTIDE1{R.G.D.[dF].V}$PEPTIDE1,PEPTIDE1,1:R1-5:R2$$$V2.0”, 16%; for “PEPTIDE1{R.G.D.[dPhe-t].V}$PEPTIDE1,PEPTIDE1,1:R1-5:R2$$$V2.0”, 15%. “PEPTIDE1{R.G.[Asp-t].[dF].V}$PEPTIDE1,PEPTIDE1,1:R1-5:R2$$$V2.0”: the isolated yield amounted to 14%. In the case of “PEPTIDE1{R.[Gly-t].D.[dF].V}$PEPTIDE1,PEPTIDE1,1:R1-5:R2$$$V2.0” it was 12%; in that of “PEPTIDE1{[Arg-t].G.D.[dF].V}$PEPTIDE1,PEPTIDE1,1:R1-5:R2$$$V2.0”, 15%; in that of cyclo(–D-Ala–Ala4–), 16%.
